Results: patent EP0732399A2 (CEPHALON, INC., priority 1990, dated 1991)
Not every detail of the peptide structures is certain; ends, links or a residue may be inferred.

Target: T1, chymase (Rattus norvegicus, UniProt P09650)
T1 construct: Starting from 18g rat brain, approximately 10µg homogeneous chymase was obtained; from tissue; host or cells: rat forebrain (5-7 day old pups)
T1 sequence (P09650 21-260): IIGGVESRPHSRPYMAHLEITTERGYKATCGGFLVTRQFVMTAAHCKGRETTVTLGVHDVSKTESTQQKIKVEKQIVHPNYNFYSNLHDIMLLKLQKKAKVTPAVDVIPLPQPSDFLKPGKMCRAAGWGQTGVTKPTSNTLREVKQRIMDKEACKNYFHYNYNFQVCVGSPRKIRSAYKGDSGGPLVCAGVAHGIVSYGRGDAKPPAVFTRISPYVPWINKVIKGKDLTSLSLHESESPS
Assay: Degradation of junction peptide by purified chymase, HPLC and microsequencing of fragments
Assay type: biochemical
Settings: enzyme:substrate molar ratio 1:50, room temperature

Structure (SMILES): CSCC[C@H](NC(=O)[C@H](CCCCN)NC(=O)[C@@H](NC(=O)[C@@H](N)CCC(=O)O)C(C)C)C(=O)N[C@@H](CC(=O)O)C(=O)N[C@@H](C)C(=O)N[C@@H](CCC(=O)O)C(=O)N[C@@H](Cc1ccccc1)C(=O)N[C@@H](CCCNC(=N)N)C(=O)N[C@@H](Cc1c[nH]cn1)C(=O)N[C@@H](CC(=O)O)C(=O)N[C@@H](CO)C(=O)NCC(=O)N[C@@H](Cc1ccc(O)cc1)C(=O)N[C@@H](CCC(=O)O)C(=O)N[C@H](C(=O)N[C@@H](Cc1c[nH]cn1)C(=O)N[C@@H](Cc1c[nH]cn1)C(=O)N[C@@H](CCC(N)=O)C(=O)O)C(C)C [junction peptide]
- degradation of junction peptide by chymase: degraded the junction peptide between Met and Asp
- time until intact junction peptide disappeared (reverse phase HPLC): ≤ 45 min
